Binding data for two molecules are collected here from publication PMC10353822.

No constants are given. Whether binding was seen depends on the method and setting. Binding seen in cells or lysates may run through a third protein. Some results given as binding are weak or reduced against the parent protein; the word gives no strength. For some assays here: Tags and fused reporters may be left off the sequences shown.

Common to all, as to settings: remark: other sources report otherwise
Assay [1] addresses T1, TRIM33 (endogenous) (human (endogenous in AGS, 293T, NPC43 and Akata cells)), Q9UPN9.
T1 chain: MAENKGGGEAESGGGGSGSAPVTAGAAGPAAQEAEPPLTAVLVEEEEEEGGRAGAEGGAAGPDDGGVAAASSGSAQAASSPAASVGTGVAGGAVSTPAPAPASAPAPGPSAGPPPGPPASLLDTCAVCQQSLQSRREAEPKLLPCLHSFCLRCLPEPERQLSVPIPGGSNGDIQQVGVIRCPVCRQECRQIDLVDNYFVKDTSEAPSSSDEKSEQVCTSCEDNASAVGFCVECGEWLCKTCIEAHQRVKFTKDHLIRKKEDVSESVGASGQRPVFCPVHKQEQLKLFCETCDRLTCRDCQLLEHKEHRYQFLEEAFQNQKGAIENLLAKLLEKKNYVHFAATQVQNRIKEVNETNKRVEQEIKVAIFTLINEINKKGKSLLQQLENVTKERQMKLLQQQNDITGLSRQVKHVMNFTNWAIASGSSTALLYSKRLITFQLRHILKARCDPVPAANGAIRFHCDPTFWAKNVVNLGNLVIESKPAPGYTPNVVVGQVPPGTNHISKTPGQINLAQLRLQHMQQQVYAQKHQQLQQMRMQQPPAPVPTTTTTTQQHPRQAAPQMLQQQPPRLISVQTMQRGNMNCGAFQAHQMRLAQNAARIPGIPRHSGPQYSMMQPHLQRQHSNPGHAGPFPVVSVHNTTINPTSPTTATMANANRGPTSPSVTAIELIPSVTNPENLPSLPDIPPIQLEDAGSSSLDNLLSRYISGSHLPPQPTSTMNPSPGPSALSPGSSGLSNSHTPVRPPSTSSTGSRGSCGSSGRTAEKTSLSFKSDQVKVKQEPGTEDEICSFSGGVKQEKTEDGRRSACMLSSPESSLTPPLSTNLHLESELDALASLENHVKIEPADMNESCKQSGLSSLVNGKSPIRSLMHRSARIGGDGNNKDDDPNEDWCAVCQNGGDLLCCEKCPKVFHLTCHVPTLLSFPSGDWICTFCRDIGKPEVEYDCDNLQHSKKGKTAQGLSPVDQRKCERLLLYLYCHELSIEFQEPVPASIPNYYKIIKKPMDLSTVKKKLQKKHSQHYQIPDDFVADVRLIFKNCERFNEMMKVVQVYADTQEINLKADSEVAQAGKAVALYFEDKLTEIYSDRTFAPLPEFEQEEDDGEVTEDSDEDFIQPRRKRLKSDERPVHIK
In words: co-IP; IP of endogenous TRIM33 (antibody on protein A/G agarose, overnight at 4°C, RIPA buffer) from 293T cells transfected with pPL17-BZLF1 or empty vector, 24 h; Western blot for TRIM24, TRIM28, TRIM33. (A western blot detects proteins with antibodies after separation by electrophoresis.)

In assay [2] the target is T2, TRIM33 with C-terminal FLAG, Q9UPN9.
T2 chain: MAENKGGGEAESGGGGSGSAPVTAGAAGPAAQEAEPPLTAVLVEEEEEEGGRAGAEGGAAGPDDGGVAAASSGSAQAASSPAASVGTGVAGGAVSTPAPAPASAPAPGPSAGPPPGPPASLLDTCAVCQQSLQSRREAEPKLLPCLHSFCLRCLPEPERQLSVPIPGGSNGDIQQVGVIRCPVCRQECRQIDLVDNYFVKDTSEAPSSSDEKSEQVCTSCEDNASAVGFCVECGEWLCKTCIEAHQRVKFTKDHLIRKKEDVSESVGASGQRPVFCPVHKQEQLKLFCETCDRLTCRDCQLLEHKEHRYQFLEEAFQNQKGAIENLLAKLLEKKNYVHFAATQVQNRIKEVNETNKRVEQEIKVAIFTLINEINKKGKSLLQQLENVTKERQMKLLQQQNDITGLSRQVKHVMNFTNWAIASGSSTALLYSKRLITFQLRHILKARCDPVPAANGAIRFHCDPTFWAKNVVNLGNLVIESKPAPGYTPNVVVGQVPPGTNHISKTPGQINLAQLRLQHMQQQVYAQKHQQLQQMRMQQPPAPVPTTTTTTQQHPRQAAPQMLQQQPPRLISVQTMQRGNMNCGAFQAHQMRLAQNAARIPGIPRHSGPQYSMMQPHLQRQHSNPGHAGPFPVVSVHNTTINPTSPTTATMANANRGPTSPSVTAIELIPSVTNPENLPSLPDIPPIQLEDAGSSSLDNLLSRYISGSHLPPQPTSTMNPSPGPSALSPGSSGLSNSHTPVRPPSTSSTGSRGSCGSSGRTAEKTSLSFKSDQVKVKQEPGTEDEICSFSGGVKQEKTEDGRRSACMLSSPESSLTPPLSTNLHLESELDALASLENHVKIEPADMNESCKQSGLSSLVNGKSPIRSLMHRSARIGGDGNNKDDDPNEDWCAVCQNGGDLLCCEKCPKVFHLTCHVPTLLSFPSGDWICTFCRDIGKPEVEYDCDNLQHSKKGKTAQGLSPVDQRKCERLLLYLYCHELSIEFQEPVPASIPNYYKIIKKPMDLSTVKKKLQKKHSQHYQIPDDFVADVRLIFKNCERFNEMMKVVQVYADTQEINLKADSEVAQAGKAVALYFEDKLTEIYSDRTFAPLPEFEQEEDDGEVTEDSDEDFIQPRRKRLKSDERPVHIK
Nature of the assay: co-IP; TRIM33-FLAG expressed in AGS-EBV cells, reactivated with 3 mM sodium butyrate and 20 ng/ml TPA for 24 h; anti-FLAG M2 magnetic beads overnight at 4°C; modified RIPA buffer with 300 mM NaCl; Western blot.

In assay [3] the target is T1, TRIM33 (endogenous) (human (endogenous …)). Nature of the assay: co-IP; IP of endogenous TRIM33 (anti-TRIM33 Cell Signaling #90051, 16 h at 4°C, Protein A magnetic beads, RIPA buffer) from NPC43-Z and Akata-Z cells before or 24 h after dox (EBV reactivation); Western blot for TRIM24, TRIM28, TRIM33.

B1: TRIM28 (endogenous), Q13263 1-835 (protein)
chain: MAASAAAASAAAASAASGSPGPGEGSAGGEKRSTAPSAAASASASAAASSPAGGGAEALELLEHCGVCRERLRPEREPRLLPCLHSACSACLGPAAPAAANSSGDGGAAGDGTVVDCPVCKQQCFSKDIVENYFMRDSGSKAATDAQDANQCCTSCEDNAPATSYCVECSEPLCETCVEAHQRVKYTKDHTVRSTGPAKSRDGERTVYCNVHKHEPLVLFCESCDTLTCRDCQLNAHKDHQYQFLEDAVRNQRKLLASLVKRLGDKHATLQKSTKEVRSSIRQVSDVQKRVQVDVKMAILQIMKELNKRGRVLVNDAQKVTEGQQERLERQHWTMTKIQKHQEHILRFASWALESDNNTALLLSKKLIYFQLHRALKMIVDPVEPHGEMKFQWDLNAWTKSAEAFGKIVAERPGTNSTGPAPMAPPRAPGPLSKQGSGSSQPMEVQEGYGFGSGDDPYSSAEPHVSGVKRSRSGEGEVSGLMRKVPRVSLERLDLDLTADSQPPVFKVFPGSTTEDYNLIVIERGAAAAATGQPGTAPAGTPGAPPLAGMAIVKEEETEAAIGAPPTATEGPETKPVLMALAEGPGAEGPRLASPSGSTSSGLEVVAPEGTSAPGGGPGTLDDSATICRVCQKPGDLVMCNQCEFCFHLDCHLPALQDVPGEEWSCSLCHVLPDLKEEDGSLSLDGADSTGVVAKLSPANQRKCERVLLALFCHEPCRPLHQLATDSTFSLDQPGGTLDLTLIRARLQEKLSPPYSSPQEFAQDVGRMFKQFNKLTEDKADVQSIIGLQRFFETRMNEAFGDTKFSAVLVEPPPMSLPGAGLSSQELSGGPGDGP
Turning to B1, the binding result in assay [1], in assay [2] and in assay [3] was “binds” each time.

B2: TRIM24 (endogenous), O15164 1-1050 (protein)
chain: MEVAVEKAVAAAAAASAAASGGPSAAPSGENEAESRQGPDSERGGEAARLNLLDTCAVCHQNIQSRAPKLLPCLHSFCQRCLPAPQRYLMLPAPMLGSAETPPPVPAPGSPVSGSSPFATQVGVIRCPVCSQECAERHIIDNFFVKDTTEVPSSTVEKSNQVCTSCEDNAEANGFCVECVEWLCKTCIRAHQRVKFTKDHTVRQKEEVSPEAVGVTSQRPVFCPFHKKEQLKLYCETCDKLTCRDCQLLEHKEHRYQFIEEAFQNQKVIIDTLITKLMEKTKYIKFTGNQIQNRIIEVNQNQKQVEQDIKVAIFTLMVEINKKGKALLHQLESLAKDHRMKLMQQQQEVAGLSKQLEHVMHFSKWAVSSGSSTALLYSKRLITYRLRHLLRARCDASPVTNNTIQFHCDPSFWAQNIINLGSLVIEDKESQPQMPKQNPVVEQNSQPPSGLSSNQLSKFPTQISLAQLRLQHMQQQVMAQRQQVQRRPAPVGLPNPRMQGPIQQPSISHQQPPPRLINFQNHSPKPNGPVLPPHPQQLRYPPNQNIPRQAIKPNPLQMAFLAQQAIKQWQISSGQGTPSTTNSTSSTPSSPTITSAAGYDGKAFGSPMIDLSSPVGGSYNLPSLPDIDCSSTIMLDNIVRKDTNIDHGQPRPPSNRTVQSPNSSVPSPGLAGPVTMTSVHPPIRSPSASSVGSRGSSGSSSKPAGADSTHKVPVVMLEPIRIKQENSGPPENYDFPVVIVKQESDEESRPQNANYPRSILTSLLLNSSQSSTSEETVLRSDAPDSTGDQPGLHQDNSSNGKSEWLDPSQKSPLHVGETRKEDDPNEDWCAVCQNGGELLCCEKCPKVFHLSCHVPTLTNFPSGEWICTFCRDLSKPEVEYDCDAPSHNSEKKKTEGLVKLTPIDKRKCERLLLFLYCHEMSLAFQDPVPLTVPDYYKIIKNPMDLSTIKKRLQEDYSMYSKPEDFVADFRLIFQNCAEFNEPDSEVANAGIKLENYFEELLKNLYPEKRFPKPEFRNESEDNKFSDDSDDDFVQPRKKRLKSIEERQLLK
B2: the binding entry in assay [2] and in assay [3] was “binds” in each case.
